Test in all cases: In vitro antifungal activity MIC80 (NCCLS M27A)
Settings in all cases: MIC80, 48 hours, 37° C.; DPV15-AmB and AmB in μg/ml of AmB active product

Experiment [1] has as its system Candida albicans (ATCC 90028).
For experiment [2], the system named is Cryptococcus neoformans (NIH 52D).
Experiment [3] concerns Aspergillus fumigatus (IP 2001/183.02).

In brackets after ≈: the same amount, converted by molar mass.

As usually defined, the MIC is the least concentration at which growth counts as inhibited.

As for `C[C@@H]1[C@H](O)[C@@H](C)/C=C/C=C/C=C/C=C/C=C/C=C/C=C/[C@H](O[C@@H]2O[C@H](C)[C@@H](O)[C@H](N)[C@@H]2O)C[C@@H]2O[C@](O)(C[C@@H](O)C[C@@H](O)[C@H](O)CC[C@@H](O)C[C@@H](O)CC(=O)O[C@H]1C)C[C@H](O)[C@H]2C(=O)O` [AmB, Amphotericin B], the MIC in experiment [1] is 0.5 µg/mL (≈ 0.541 µM); in experiment [2] it was 0.06 µg/mL (≈ 0.0649 µM); in experiment [3], 1 µg/mL (≈ 1.08 µM).

For the origin of these results see patent publication US7544664B2, “Sequences facilitating penetration of a substance of interest” (priority 2003, dated 2009).
